Results from article PMC6411374, “Substrate channeling in oxylipin biosynthesis through a protein complex in the plastid envelope of Arabidopsis thaliana” (Journal of Experimental Botany, 2019).

Target: (His)6-tagged hydroperoxide lyase [HPL-(His)6] (A. thaliana)
Test: pull-down; purified (His)6-tagged bait imported into isolated Arabidopsis chloroplasts (2.5 mM Mg-ATP); mixed envelopes solubilised with […] decyl maltoside; Ni-NTA affinity chromatography, size exclusion on Superose 6 (peak I, ~250 kDa); co-purified bands identified by SDS-PAGE with protein sequencing, LOX2 also by western blot; only the target purified

| binding | Binder |
| --- | --- |
| no binding | lipoxygenase 2 (LOX2), endogenous in the envelope of Arabidopsis chloroplasts (enzyme, UniProt P38418 57-896, looked up, lipoxygenase 2 (LOX2), A. thaliana, ~100 kDa band of the plastid envelope; also called 13-lipoxygenase; source: endogenous, envelopes of isolated Arabidopsis chloroplasts) ANIEQEGNTVKEPIQNIKVKGYITAQEEFLEGITWSRGLDDIADIRGRSLLVELISAKTDQRITVEDYAQRVWAEAPDEKYECEFEMPEDFGPVGAIKIQNQYHRQLFLKGVELKLPGGSITFTCESWVAPKSVDPTKRIFFSDKSYLPSQTPEPLKKYRKEELETLQGKNREEVGEFTKFERIYDYDVYNDVGDPDNDPELARPVIGGLTHPYPRRCKTGRKPCETDPSSEQRYGGEFYVPRDEEFSTAKGTSFTGKAVLAALPSIFPQIESVLLSPQEPFPHFKAIQNLFEEGIQLPKDAGLLPLLPRIIKALGEAQDDILQFDAPVLINRDRFSWLRDDEFARQTLAGLNPYSIQLVEEWPLISKLDPAVYGDPTSLITWEIVEREVKGNMTVDEALKNKRLFVLDYHDLLLPYVNKVRELNNTTLYASRTLFFLSDDSTLRPVAIELTCPPNINKPQWKQVFTPGYDATSCWLWNLAKTHAISHDAGYHQLISHWLRTHACTEPYIIAANRQLSAMHPIYRLLHPHFRYTMEINARARQSLVNGGGIIETCFWPGKYALELSSAVYGKLWRFDQEGLPADLIKRGLAEEDKTAEHGVRLTIPDYPFANDGLILWDAIKEWVTDYVKHYYPDEELITSDEELQGWWSEVRNIGHGDKKDEPWWPVLKTQDDLIGVVTTIAWVTSGHHAAVNFGQYGYGGYFPNRPTTTRIRMPTEDPTDEALKEFYESPEKVLLKTYPSQKQATLVMVTLDLLSTHSPDEEYIGEQQEASWANEPVINAAFERFKGKLQYLEGVIDERNVNITLKNRAGAGVVKYELLKPTSEHGVTGMGVPYSISI |
| no binding | allene oxide cyclase 2 (AOC2), endogenous in the envelope of Arabidopsis chloroplasts (enzyme, UniProt Q9LS02 78-253, looked up, allene oxide cyclase 2 (AOC2), A. thaliana, ~72 kDa (SDS-resistant trimer) and ~24 kDa (monomer) bands of the plastid envelope; Found both as trimer and as monomer; source: endogenous, envelopes of isolated Arabidopsis chloroplasts) PSKVQELSVYEINELDRHSPKILKNAFSLMFGLGDLVPFTNKLYTGDLKKRVGITAGLCVVIEHVPEKKGERFEATYSFYFGDYGHLSVQGPYLTYEDSFLAITGGAGIFEGAYGQVKLQQLVYPTKLFYTFYLKGLANDLPLELTGTPVPPSKDIEPAPEAKALEPSGVISNYTN |

Results are given in words; binding and its absence hold for the method and conditions named. In cells and extracts the contact can be indirect.
